Results published in patent publication US8673951B2, “Isoxazoline-substituted benzamide compound and pesticide” (priority 2005, dated 2014).
Some results were stated once for a whole list of compounds, not compound by compound. At least one compound was matched to its structure with a doubt left.

test system: cabbage moth (Plutella xylostella); assay: Insecticidal test against cabbage moth (Test Example 1); format: in vivo; conditions: chemical solution 10 ppm (**); cabbage leaf dip; second instar larva; after 6 days; 25° C.

Row | Structure (SMILES) | insecticidal rate (rate of dead insects) [%]
1 | CC(=O)OCN(C(=O)c1ccc(C2=NOC(c3cc(Cl)cc(Cl)c3)(C(F)(F)F)C2)cc1C)c1ncc(Br)cn1 (racemic) [5-117] | ≥ 80
2 | Cc1cc(C2=NOC(c3cc(Cl)cc(Cl)c3)(C(F)(F)F)C2)ccc1C(=O)N(CC#N)c1ncc(Br)cn1 (racemic) [5-118] | ≥ 80
3 | CC(=O)N(C(=O)c1ccc(C2=NOC(c3cc(Cl)cc(Cl)c3)(C(F)(F)F)C2)cc1C)c1ncc(Br)cn1 (racemic) [5-119] | ≥ 80
4 | CCC(=O)N(C(=O)c1ccc(C2=NOC(c3cc(Cl)cc(Cl)c3)(C(F)(F)F)C2)cc1C)c1ncc(Br)cn1 (racemic) [5-120] | ≥ 80
5 | CCCC(=O)N(C(=O)c1ccc(C2=NOC(c3cc(Cl)cc(Cl)c3)(C(F)(F)F)C2)cc1C)c1ncc(Br)cn1 (racemic) [5-121] | ≥ 80
6 | Cc1cc(C2=NOC(c3cc(Cl)cc(Cl)c3)(C(F)(F)F)C2)ccc1C(=O)N(C(=O)C1CC1)c1ncc(Br)cn1 (racemic) [5-123] | ≥ 80
7 | Cc1cc(C2=NOC(c3cc(Cl)cc(Cl)c3)(C(F)(F)F)C2)ccc1C(=O)N(C(=O)C(C)(C)C)c1ncc(Br)cn1 (racemic) [5-124] | ≥ 80
8 | COCC(=O)N(C(=O)c1ccc(C2=NOC(c3cc(Cl)cc(Cl)c3)(C(F)(F)F)C2)cc1C)c1ncc(Br)cn1 (racemic) [5-125] | ≥ 80
9 | COC(=O)N(C(=O)c1ccc(C2=NOC(c3cc(Cl)cc(Cl)c3)(C(F)(F)F)C2)cc1C)c1ncc(Br)cn1 (racemic) [5-126] | ≥ 80
10 | CCOC(=O)N(C(=O)c1ccc(C2=NOC(c3cc(Cl)cc(Cl)c3)(C(F)(F)F)C2)cc1C)c1ncc(Br)cn1 (racemic) [5-127] | ≥ 80
11 | CCCOC(=O)N(C(=O)c1ccc(C2=NOC(c3cc(Cl)cc(Cl)c3)(C(F)(F)F)C2)cc1C)c1ncc(Br)cn1 (racemic) [5-128] | ≥ 80
12 | Cc1cc(C2=NOC(c3cc(Cl)cc(Cl)c3)(C(F)(F)F)C2)ccc1C(=O)N(C(=O)OCC(C)C)c1ncc(Br)cn1 (racemic) [5-129] | ≥ 80
13 | Cc1cc(C2=NOC(c3cc(Cl)cc(Cl)c3)(C(F)(F)F)C2)ccc1C(=O)N(C(=O)OCCl)c1ncc(Br)cn1 (racemic) [5-130] | ≥ 80
14 | Cc1cc(C2=NOC(c3cc(Cl)cc(Cl)c3)(C(F)(F)F)C2)ccc1C(=O)N(C)c1cnc(Br)cn1 (racemic) [5-132] | ≥ 80
15 | CC(=O)N(C(=O)c1ccc(C2=NOC(c3cc(Cl)cc(Cl)c3)(C(F)(F)F)C2)cc1C)c1cnc(Br)cn1 (racemic) [5-133] | ≥ 80
16 | COC(=O)N(C(=O)c1ccc(C2=NOC(c3cc(Cl)cc(Cl)c3)(C(F)(F)F)C2)cc1C)c1cnc(Br)cn1 (racemic) [5-134] | ≥ 80
17 | CN(C(=O)c1ccc(C2=NOC(c3cc(Cl)cc(Cl)c3)(C(F)(F)F)C2)cc1I)c1ccc(Cl)cn1 (racemic) [5-137] | ≥ 80
18 | CN(C(=O)c1ccc(C2=NOC(c3cc(Cl)cc(Cl)c3)(C(F)(F)F)C2)cc1I)c1ncc(Cl)cn1 (racemic) [5-138] | ≥ 80
19 | CC(=O)N(C(=O)c1ccc(C2=NOC(c3cc(Cl)cc(Cl)c3)(C(F)(F)F)C2)cc1I)c1ncc(Cl)cn1 (racemic) [5-139] | ≥ 80
20 | CON=CN(COC(C)=O)C(=O)c1ccc(C2=NOC(c3cc(Cl)cc(Cl)c3)(C(F)(F)F)C2)cc1C (single isomer, unassigned) [7-014] | ≥ 80
21 | CON=CN(CSC)C(=O)c1ccc(C2=NOC(c3cc(Cl)cc(Cl)c3)(C(F)(F)F)C2)cc1C (single isomer, unassigned) [7-016] | ≥ 80
22 | COC(=O)NC(=O)c1ccc(C2=NOC(c3cc(Cl)cc(Cl)c3)(C(F)(F)F)C2)cc1Cl (centres unmarked) [2-013] | ≥ 80
23 | COC(=O)NC(=O)c1ccc(C2=NOC(c3cc(Cl)cc(Cl)c3)(C(F)(F)F)C2)cc1Br (centres unmarked) [2-014] | ≥ 80
24 | COC(=O)NC(=O)c1ccc(C2=NOC(c3cc(Cl)cc(Cl)c3)(C(F)(F)F)C2)cc1-c1ccccc1 (centres unmarked) [2-018] | ≥ 80

same assay, conditions: chemical solution 100 ppm (*); cabbage leaf dip; second instar larva; after 6 days; 25° C.

Row | Structure (SMILES) | insecticidal rate (rate of dead insects) [%]
25 | CC(=O)N(C(=O)c1ccc(C2=NOC(c3cc(Cl)cc(Cl)c3)(C(F)(F)F)C2)cc1C)c1ccc(Cl)nn1 (racemic) [5-135] | ≥ 80
26 | COC(=O)N(C(=O)c1ccc(C2=NOC(c3cc(Cl)cc(Cl)c3)(C(F)(F)F)C2)cc1C)c1ccc(Cl)nn1 (racemic) [5-136] | ≥ 80
27 | COC(=O)C(C)OC(=O)NC(=O)c1ccc(C2=NOC(c3cc(Cl)cc(Cl)c3)(C(F)(F)F)C2)cc1C (centres unmarked) [1-036] | ≥ 80
28 | COC(=O)C(C)OC(=O)N(C)C(=O)c1ccc(C2=NOC(c3cc(Cl)cc(Cl)c3)(C(F)(F)F)C2)cc1C (centres unmarked) [1-037] | ≥ 80
29 | C=C(C)COC(=O)NC(=O)c1ccc(C2=NOC(c3cc(Cl)cc(Cl)c3)(C(F)(F)F)C2)cc1C (centres unmarked) [1-039] | ≥ 80
30 | C=C(Cl)COC(=O)NC(=O)c1ccc(C2=NOC(c3cc(Cl)cc(Cl)c3)(C(F)(F)F)C2)cc1C (centres unmarked) [1-044] | ≥ 80
31 | C#CCOC(=O)NC(=O)c1ccc(C2=NOC(c3cc(Cl)cc(Cl)c3)(C(F)(F)F)C2)cc1C (centres unmarked) [1-045] | ≥ 80
32 | Cc1cc(C2=NOC(c3cc(Cl)cc(Cl)c3)(C(F)(F)F)C2)ccc1C(=O)NC(=O)OCc1ccco1 (centres unmarked) [1-047] | ≥ 80
33 | Cc1cc(C2=NOC(c3cc(Cl)cc(Cl)c3)(C(F)(F)F)C2)ccc1C(=O)NC(=O)OCc1ccccn1 (centres unmarked) [1-048] | ≥ 80
34 | Cc1cc(C2=NOC(c3cc(Cl)cc(Cl)c3)(C(F)(F)F)C2)ccc1C(=O)N(C)C(=O)OCc1ccccn1 (centres unmarked) [1-049] | ≥ 80
35 | CSC(=O)NC(=O)c1ccc(C2=NOC(c3cc(Cl)cc(Cl)c3)(C(F)(F)F)C2)cc1C (centres unmarked) [1-050] | ≥ 80
36 | CCOC(=O)N(C(C)=O)C(=O)c1ccc(C2=NOC(c3cc(Cl)cc(Cl)c3)(C(F)(F)F)C2)cc1C (centres unmarked) [1-052] | ≥ 80
37 | COCC(=O)N(C(=O)OC(C)C)C(=O)c1ccc(C2=NOC(c3cc(Cl)cc(Cl)c3)(C(F)(F)F)C2)cc1C (centres unmarked) [1-053] | ≥ 80
38 | Cc1cc(C2=NOC(c3cc(Cl)cc(Cl)c3)(C(F)(F)F)C2)ccc1C(=O)NC(=O)OCCSc1ccccn1 (centres unmarked) [1-054] | ≥ 80
39 | Cc1cc(C2=NOC(c3cc(Cl)cc(Cl)c3)(C(F)(F)F)C2)ccc1C(=O)NC(=O)OCC(C)[N+](=O)[O-] (centres unmarked) [1-055] | ≥ 80
40 | CC(=O)C(C)OC(=O)NC(=O)c1ccc(C2=NOC(c3cc(Cl)cc(Cl)c3)(C(F)(F)F)C2)cc1C (centres unmarked) [1-056] | ≥ 80
41 | Cc1cc(C2=NOC(c3cc(Cl)cc(Cl)c3)(C(F)(F)F)C2)ccc1C(=O)NC(=O)OCC[Si](C)(C)C (centres unmarked) [1-057] | ≥ 80
42 | Cc1cc(C2=NOC(c3cc(Cl)cc(Cl)c3)(C(F)(F)F)C2)ccc1C(=O)NC(=O)OC(C)(C)C (centres unmarked) [2-004] | ≥ 80
43 | COCCOCCOC(=O)NC(=O)c1ccc(C2=NOC(c3cc(Cl)cc(Cl)c3)(C(F)(F)F)C2)cc1C (centres unmarked) [2-005] | ≥ 80
44 | CC(=O)NCCOC(=O)NC(=O)c1ccc(C2=NOC(c3cc(Cl)cc(Cl)c3)(C(F)(F)F)C2)cc1C (centres unmarked) [2-006] | ≥ 80
45 | Cc1cc(C2=NOC(c3cc(Cl)cc(Cl)c3)(C(F)(F)F)C2)ccc1C(=O)NC(=O)OCCN1C(=O)c2ccccc2C1=O (centres unmarked) [2-007] | ≥ 80
46 | Cc1cc(C2=NOC(c3cc(Cl)cc(Cl)c3)(C(F)(F)F)C2)ccc1C(=O)NC(=O)OCCC#N (centres unmarked) [2-008] | ≥ 80
47 | COC(=O)COC(=O)NC(=O)c1ccc(C2=NOC(c3cc(Cl)cc(Cl)c3)(C(F)(F)F)C2)cc1C (centres unmarked) [2-009] | ≥ 80
48 | CCCSC(=O)NC(=O)c1ccc(C2=NOC(c3cc(Cl)cc(Cl)c3)(C(F)(F)F)C2)cc1C (centres unmarked) [2-010] | ≥ 80
49 | COC(=S)NC(=O)c1ccc(C2=NOC(c3cc(Cl)cc(Cl)c3)(C(F)(F)F)C2)cc1C (centres unmarked) [2-011, N-[4-[5-(3,5-Dichlorophenyl)-5-trifluoromethyl-4,5-dihydroisoxazole-3-yl]-2-methylbenzoyl]thiocarbamic acid-O-methyl] | ≥ 80
50 | CSC(=S)NC(=O)c1ccc(C2=NOC(c3cc(Cl)cc(Cl)c3)(C(F)(F)F)C2)cc1C (centres unmarked) [2-012] | ≥ 80
51 | COC(=O)NC(=O)c1ccc(C2=NOC(c3cc(Cl)cc(Cl)c3)(C(F)(F)F)C2)cc1I (centres unmarked) [2-015] | ≥ 80
52 | CC(C)OC(=O)NC(=O)c1ccc(C2=NOC(c3cc(Cl)cc(Cl)c3)(C(F)(F)F)C2)cc1I (centres unmarked) [2-016] | ≥ 80
53 | COC(=O)NC(=O)c1ccc(C2=NOC(c3cc(Cl)cc(Cl)c3)(C(F)(F)F)C2)cc1[N+](=O)[O-] (centres unmarked) [2-017] | ≥ 80

same assay, conditions: chemical solution 500 ppm; cabbage leaf dip; second instar larva; after 6 days; 25° C.

Row | Structure (SMILES) | insecticidal rate (rate of dead insects) [%]
54 | Cc1cc(C2=NOC(c3cc(Cl)cc(Cl)c3)(C(F)(F)F)C2)ccc1C(=O)NC(=O)OC1C(=O)OCC1(C)C (centres unmarked) [1-038] | ≥ 80
55 | Cc1cc(C2=NOC(c3cc(Cl)cc(Cl)c3)(C(F)(F)F)C2)ccc1C(=O)NC(=O)OCc1ccc(F)cc1 (centres unmarked) [1-046] | ≥ 80
56 | CCCSC(=O)N(C)C(=O)c1ccc(C2=NOC(c3cc(Cl)cc(Cl)c3)(C(F)(F)F)C2)cc1C (centres unmarked) [1-051] | ≥ 80
57 | Cc1cc(C2=NOC(c3cc(Cl)cc(Cl)c3)(C(F)(F)F)C2)ccc1C(=O)NC(=O)OCCC[Si](C)(C)C (centres unmarked) [1-058] | ≥ 80
58 | CCOC(=O)NC(=O)c1ccc(C2=NOC(c3cc(Cl)cc(Cl)c3)(C(F)(F)F)C2)cc1 (centres unmarked) [2-001] | ≥ 80
59 | CC(C)OC(=O)NC(=O)c1ccc(C2=NOC(c3cc(Cl)cc(Cl)c3)(C(F)(F)F)C2)cc1 (centres unmarked) [2-002] | ≥ 80
